# Test results from PubChem BioAssay AID1439 (NMMLSC, 2008).
# The chains behind the UniProt entries cited, without tags or fusion partners.
# UniProt P09471, whole entry, looked up: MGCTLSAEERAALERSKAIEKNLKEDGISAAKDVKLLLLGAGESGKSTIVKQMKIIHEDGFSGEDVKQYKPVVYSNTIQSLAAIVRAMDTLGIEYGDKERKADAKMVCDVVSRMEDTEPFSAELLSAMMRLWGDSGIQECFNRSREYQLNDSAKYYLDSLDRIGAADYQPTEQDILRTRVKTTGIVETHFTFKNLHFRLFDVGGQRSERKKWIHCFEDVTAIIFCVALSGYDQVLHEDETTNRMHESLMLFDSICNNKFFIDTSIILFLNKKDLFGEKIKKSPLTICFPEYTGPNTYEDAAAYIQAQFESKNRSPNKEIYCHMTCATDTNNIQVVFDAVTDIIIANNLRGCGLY
# Screen size: about 220,000 compounds; about 770 (0.35%) were called active. This list was built around the results that the source calls inconclusive (neither active nor inactive); the mix of calls is not that of the screen. Rule as the data show it: active = binding response below about 49% or above about 150%; inconclusive = no clear call, values can overlap the other calls; inactive = in between.
# Molecular target: Guanine nucleotide-binding protein G(o) subunit alpha (Homo sapiens) (UniProt P09471)
# Assay: RGS7-Galphao binding modulators, primary screen, biochemical, multiplexed bead flow cytometry (AID 1439);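 also: fluorescent Galphao held in activated GDP-AlF4 state binding bead-coupled RGS7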
# Conditions: at 10 µM, actives lie on both sides
row,Structure (SMILES),binding response (% of control)
1,Cc1ccc(-n2c(P(C)(=O)O)nc3ccccc32)cc1,inconclusive: 116%
2,CN(Cc1ccon1)C(=O)CC1C(=O)NCCN1CC1CCCCC1 (centres undefined),inactive: 99%
3,COc1cc(S(=O)(=O)N(Cc2cccc(OC)c2OC)CC2CCCO2)ccc1-n1cnnn1 (centres undefined),inconclusive: 111%
4,COc1ccccc1NC(=S)c1ccccc1,inactive: 105%
5,COC(=O)c1[nH]c2ccccc2c1NC(=O)c1ccccc1F,inconclusive: 142%
6,CNc1cc([N+](=O)[O-])ccc1OCc1ccccc1,inconclusive: 109%
7,COc1ccc(-n2c3c(cc(C(=O)NCc4ccco4)c2=O)C(=O)CC(C)(C)C3)cc1,inactive: 102%
8,CC(C)(C)NC(=O)N1CCN(c2nc(-c3ccccc3)ns2)CC1,inconclusive: 74.9%
9,Cc1ccc(OC(=O)c2sc3ncn(C)c(=O)c3c2C)cc1,inactive: 105%
10,COc1ccc(CCNC(=O)CN(C)S(=O)(=O)c2ccc(Br)s2)cc1OC,inactive: 99.9%
11,COC(=O)CCC(=O)OC1(C)C(=O)C=C2C=C(C3CC3)N(c3cccc(C#N)c3)C=C2C1=O (centres undefined),inconclusive: 106%
12,Cc1nc(-c2ccc(S(=O)(=O)Nc3ccc(Br)cc3Cl)s2)cs1,inconclusive: 40.4%
13,CCN(CC)CCN(C)C1CCC(c2ccccc2)CC1 (centres undefined),inactive: 101%
14,Cc1ccc(C2/C(=C(\O)c3c(C)nc4ccccn34)C(=O)C(=O)N2CCN(C)C)o1 (centres undefined),inconclusive: 99.1%
15,Cc1ccc2c(C(=O)N3CCN(c4ccccc4)CC3)cc(-c3cccnc3)nc2c1C,inconclusive: 114%
16,CCC(C)NC(=O)CN1C(=O)C(CC)Sc2ccccc21 (centres undefined),inactive: 91.1%
17,COc1cccc(CC(=O)Nc2ccc(S(=O)(=O)Nc3nc(C)cc(C)n3)cc2)c1,inactive: 101%
18,CN(C)S(=O)(=O)c1cccc(C(=O)N=C2N=C3C=CC(Cl)=CN3Cc3ccccc32)c1,inconclusive: 101%
19,O=c1[nH]c2ccccc2c2oc(CCl)nc12,inconclusive: 624%
20,Cc1ccc(C(=O)N2CCN(C(=O)c3ccc(C)cc3)C2)cc1,inconclusive: 107%

row,Structure (SMILES),binding response (% of control)
1,CCC(CC)NC(=O)COC(=O)c1cccc(C)c1O,inactive: 93.8%
2,COc1ccc(CSCCc2n[nH]c(=S)n2-c2ccccc2)cc1C,inconclusive: 98.4%
3,Cc1cccc(-c2noc(-c3c(C)noc3C)n2)c1,inconclusive: 102%
4,COC(=O)CSc1ccnc2cc(Cl)ccc12,inconclusive: 96%
5,Cc1ccc(C)c(NC2=C(Cl)C(=O)OC2OC(C)C)c1 (centres undefined),inactive: 100%
6,O=C1NCCN/C1=C\C(=O)c1cccc(Br)c1,inconclusive: 52.5%
7,CC(C)C1Cc2nc(Cl)c(C#N)cc2CO1 (centres undefined),inconclusive: 65.2%
8,OC(CNCc1cccc(Cl)c1)c1ccccc1 (centres undefined),inconclusive: 81.6%
9,CC(C)(C)c1ccc(NC(=O)c2ccsc2)cc1,inconclusive: 99.7%
10,O=C(COc1ccccc1/C=C\c1nc(O)c([N+](=O)[O-])c(=O)[nH]1)Nc1ccccc1,inconclusive: 88.3%
11,O=C1C=CC(=O)N1c1cccc(-c2ccccc2)c1,inconclusive: 156%
12,CC(=O)c1c(C)oc2ccc(NS(=O)(=O)c3cccs3)cc12,inactive: 76.4%
13,O=C1CCCc2ccccc2N1Cc1ccc(F)cc1,active: 170% [activator]
14,COc1ccc(NC(=O)C2CCCN(S(=O)(=O)c3c(C)[nH]c(=O)[nH]c3=O)C2)cc1Cl (centres undefined),inconclusive: 108%
15,O=C(Oc1cccc(O)c1)C1CCCCC1,inconclusive: 102%
16,COC(=O)c1c(NC(=O)C2(C)Cc3ccccc3C(=O)O2)sc2c1CCCC2 (centres undefined),inactive: 98.7%
17,Cc1ccc2[nH]c(=O)c(CN(C(=O)c3cccc([N+](=O)[O-])c3)C(C)(C)C)cc2c1,inconclusive: 102%
18,COc1cc([N+](=O)[O-])ccc1-c1ccc(/C=N/NC(=O)OC(C)(C)C)o1,inconclusive: 120%
19,CCC/C=N/NC(=O)CNC(=O)c1ccccc1Cl,inconclusive: 105%
20,Cc1nc(Cl)c(C#N)c2c1CCCC2,inconclusive: -245%

# Looked up above.
# For binding response (% of control), `O=C1NCCN/C1=C\C(=O)c1cccc(Br)c1` has inconclusive: 52.5%
# For binding response (% of control), `OC(CNCc1cccc(Cl)c1)c1ccccc1` (centres undefined) has inconclusive: 81.6%
# For binding response (% of control), `Cc1nc(Cl)c(C#N)c2c1CCCC2` has inconclusive: -245%

# More records:

row,Structure (SMILES),binding response (% of control)
1,NS(=O)(=O)c1ccc(N/N=C/c2ccc(C(=O)O)cc2)c([N+](=O)[O-])c1,inconclusive: 117%
2,COC(=O)c1ccc(NC(=O)Nc2ccc(F)cc2F)cc1,inconclusive: 133%
3,O=S(=O)(Nc1nc2ccccc2nc1Cl)c1ccc(Br)cc1,inconclusive: 102%
4,C/C=C(\C)C(=O)Nc1cccc(C2=NOC3(C2)C[C@@H](C(N)=O)N(C(=O)c2ccccc2C(=O)c2ccccc2)C3)c1 (some centres undefined),inconclusive: 117%
5,CSCCOC(=O)COc1ccc(/C=N/NC(=O)c2c(Cl)cnn2C)cc1,inconclusive: 70.6%
6,CCCn1c(SCC(=O)Nc2cccc(S(=O)(=O)N(C)C)c2)nc2ccccc2c1=O,inconclusive: 93.4%
7,CCCC(C)NC(=O)Cc1ccccc1 (centres undefined),inconclusive: 124%
8,COc1cc(N=C(N)N=C(N)N)cc(OC)c1,inconclusive: 105%
9,Cc1cccc(N2CCN(C(=S)Nc3ccc4nc5n(c(=O)c4c3)CCCCC5)CC2)c1C,inactive: 101%
10,COC(=O)Cn1ccc(-c2ccc(Cl)cc2)c(C#N)c1=O,inconclusive: 116%
11,CCOc1ccc(-c2c(=O)n(OCc3ccc([N+](=O)[O-])cc3)c3ccccc3[n+]2[O-])cc1,inactive: 102%
12,CC(C)CCNC(=O)C1(c2cccs2)CCOCC1,inconclusive: 104%
13,O=c1[nH]c2ccccc2c(O)c1-c1ccccc1,inconclusive: 149%
14,CCN(CC)S(=O)(=O)c1cccc(-c2nnc(SCCOc3ccccc3C)o2)c1,active: 153% [activator]
15,Cc1c(O)ccc(NS(=O)(=O)c2ccccc2)c1C,inconclusive: 83.9%
16,COc1ccc(CCNC(=O)Cn2c(=O)n(CC3CCCO3)c(=O)c3cc(OC)c(OC)cc32)cc1OC (centres undefined),inconclusive: 103%
17,COCCCNC(=S)NNC(=O)c1cccnc1,inactive: 103%
18,O=c1c2c(nc3n1CCCCC3)sc1c(O)c(Br)ccc12,inactive: 96%
19,Cn1cc(P(=S)(N2CCOCC2)N2CCOCC2)cc1P(=O)(N1CCOCC1)N1CCOCC1,inconclusive: 99.6%
